Taken from: PubChem BioAssay AID652243 (Drosophila RNAi Screening Center, 2013)

Aim: 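Fly regulators of androgen-dependent reporter output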 (primary screen)
System: Drosophila S2R+ cells
Reagents: long dsRNA against Drosophila genes
Timing: 72 h (48 h, then 24 h hormone)
Challenge: synthetic androgen R1881 at 10 nM for 24 h
Measured: 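Per-well raw luminescence of the androgen-driven firefly reporter and of the Renilla control, two replicates each, without normalisation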
Reading the numbers: firefly reporter light: higher = more light from androgen-responsive reporter; Renilla control light: higher = more constitutive control signal (cell number, transfection)
Active means: 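Across duplicate plates, a knock-down whose log firefly/Renilla ratio shifted a set fold down or up from the GFP/LacZ control mean was a hit; the downward cut appears as both 1.5 and 3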
Meaning of the calls: active = hit: reporter lowered or raised; inactive = no hit
The deposit covers about 24,000 reagents; this is an unselected part of those with a known target gene and a result. Over the whole deposit, 246 (1%) got an active call. 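Plates not normalised; calls are printed but the firefly/Renilla ratio behind them is not deposited; fold cut for lowering reported inconsistently.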 The raw values are shown without normalisation. Unmarked entries are inactive. Names joined by + are all predicted targets of the reagent. The record does not give: the amount of reagent.

Gene | dsRNA | firefly reporter light, replicate 1 | firefly reporter light, replicate 2 | Renilla control light, replicate 1 | Renilla control light, replicate 2
Ent3 | DRSC09822 | 6.61e5 | 4.67e5 | 1.74e6 | 9.98e5
Ent3 | DRSC29706 | 4.50e5 | 4.01e5 | 1.92e6 | 1.62e6
ND-B14.5AL | DRSC11795 | 2.19e5 | 2.30e5 | 2.75e6 | 2.73e6
ND-B14.5AL | DRSC28992 | 3.43e5 | 3.63e5 | 1.10e6 | 1.22e6
sinu | DRSC09752 | 6.33e5 | 5.95e5 | 2.47e6 | 3.32e6
fax | DRSC11345 | 19465 | 21754 | 2.43e5 | 2.30e5
fax | DRSC27842 | 4.65e5 | 5.20e5 | 6.23e5 | 6.47e5
Gapdh1 | DRSC07433 | 2.04e5 | 1.95e5 | 1.23e6 | 1.16e6
Gapdh1 | DRSC25746 | 5.72e5 | 5.81e5 | 7.38e5 | 6.04e5
ago | DRSC08463 | 3.12e5 | 2.06e5 | 7.88e5 | 1.33e6
CG16863 | DRSC01892 | 2.14e5 | 2.06e5 | 1.78e6 | 2.03e6
Rpn13 | DRSC06379 | 58700 | 57554 | 1.17e6 | 1.17e6
CG8708 | DRSC07240 | 1.05e6 | 6.77e5 | 1.22e6 | 1.08e6
CG8708 | DRSC27874 | 5.93e5 | 3.78e5 | 1.57e6 | 7.83e5
CG34299 | DRSC38808 | 7.59e5 | 6.15e5 | 2.03e6 | 1.51e6
ND-B14.5B | DRSC00346 | 1.43e5 | 1.55e5 | 1.29e6 | 1.36e6
CG33543 | DRSC00384 | 69713 | 68701 | 6.77e5 | 6.27e5
CG33543 | DRSC00385 | 54228 | 82392 | 5.09e5 | 9.37e5
CG12826 | DRSC06175 | 3.54e5 | 3.62e5 | 1.29e6 | 1.27e6
CG32187 | DRSC10521 | 1.57e5 | 1.20e5 | 1.63e6 | 1.59e6
NP15.6 | DRSC16756 | 1.45e5 | 2.65e5 | 2.26e6 | 2.00e6
NP15.6 | DRSC26741 | 5.29e5 | 3.70e5 | 5.72e5 | 5.67e5
lncRNA:CR31044 | DRSC22451 | 4.77e5 | 5.83e5 | 1.32e6 | 1.87e6
lncRNA:CR31044 | DRSC25989 | 3.57e5 | 2.74e5 | 6.90e5 | 5.51e5
RpS6 | DRSC18712 | 36911 | 24182 | 1.56e5 | 2.65e5
RpS6 | DRSC25010 | 2.36e5 | 1.44e5 | 8.68e5 | 3.11e5
CG10013 | DRSC14175 | 50838 | 53761 | 4.61e5 | 4.82e5
CG3065 | DRSC24998 | 7.04e5 | 7.37e5 | 8.81e5 | 8.66e5
djl | DRSC12578 | 30428 | 50172 | 1.41e6 | 1.16e6
djl | DRSC25609 | 1.79e5 | 1.30e5 | 3.11e5 | 2.84e5
CHKov1 | DRSC01566 | 1.62e5 | 1.95e5 | 3.97e5 | 6.50e5
CHKov1 | DRSC01696 | 2.24e5 | 2.65e5 | 6.39e5 | 6.08e5
CHKov1 | DRSC14258 | 1.52e5 | 2.06e5 | 1.83e6 | 2.25e6
CHKov1 | DRSC20937 | 9.87e5 | 1.16e6 | 1.50e6 | 1.31e6
CHKov1 | DRSC30063 | 6.64e5 | 8.18e5 | 1.47e6 | 1.52e6
CG42449 | DRSC18084 | 2.16e5 | 2.57e5 | 2.06e6 | 2.34e6
CG42449 | DRSC25316 | 1.25e6 | 1.11e6 | 1.16e6 | 9.57e5
sand | DRSC07245 | 2.16e5 | 3.76e5 | 1.62e6 | 1.51e6
CG30037 | DRSC07305 | 2.33e5 | 2.09e5 | 1.03e6 | 1.09e6
RpL35A | DRSC12302 | 82821 | 84587 | 1.63e6 | 1.86e6
CG6329 | DRSC06976 | 1.44e6 | 1.55e6 | 3.02e6 | 3.41e6
CG6675 | DRSC03735 | 3.50e5 | 3.11e5 | 2.25e6 | 1.64e6
CG34274 | DRSC38657 | 9.58e5 | 7.02e5 | 2.26e6 | 2.49e6
fd59A | DRSC04685 | 9.05e5 | 6.01e5 | 1.65e6 | 1.55e6
fd59A | DRSC25524 | 3.95e5 | 3.16e5 | 3.83e5 | 3.79e5
edin | DRSC09488 | 1.61e5 | 1.43e5 | 4.74e5 | 4.85e5
fln | DRSC11346 | 63794 | 48768 | 6.98e5 | 5.06e5
fln | DRSC28670 | 5.37e5 | 3.68e5 | 1.42e6 | 1.20e6
Gyc88E | DRSC15547 | 2.27e5 | 2.49e5 | 1.42e6 | 1.51e6
DMAP1 | DRSC06044 | 2.09e6 | 1.66e6 | 1.98e6 | 1.56e6
DMAP1 | DRSC26559 | 5.12e5 | 4.93e5 | 4.90e5 | 4.36e5
Amacr | DRSC03198 | 1.04e6 | 1.06e6 | 2.00e6 | 2.37e6
CG42362 + CG42363 | DRSC04265 | 9.48e5 | 7.44e5 | 2.77e6 | 3.22e6
rho-4 | DRSC19761 | 85537 | 53868 | 8.16e5 | 5.42e5
rho-4 | DRSC19762 | 5.58e5 | 6.83e5 | 4.89e6 | 2.61e6
Cdc42 | DRSC20228 | 1.16e5 | 74072 | 4.15e5 | 3.45e5
Cdc42 | DRSC25134 | 8.68e5 | 9.86e5 | 7.18e5 | 6.73e5
CG31347 | DRSC21582 | 5.80e5 | 6.29e5 | 1.75e6 | 1.94e6

Part of the list above in another layout:
{"Gene": "fax", "dsRNA": "DRSC11345", "firefly reporter light, replicate 1": 19465, "firefly reporter light, replicate 2": 21754, "Renilla control light, replicate 1": 2.43e5, "Renilla control light, replicate 2": 2.30e5}
{"Gene": "fax", "dsRNA": "DRSC27842", "firefly reporter light, replicate 1": 4.65e5, "firefly reporter light, replicate 2": 5.20e5, "Renilla control light, replicate 1": 6.23e5, "Renilla control light, replicate 2": 6.47e5}
{"Gene": "Gapdh1", "dsRNA": "DRSC07433", "firefly reporter light, replicate 1": 2.04e5, "firefly reporter light, replicate 2": 1.95e5, "Renilla control light, replicate 1": 1.23e6, "Renilla control light, replicate 2": 1.16e6}
{"Gene": "Gapdh1", "dsRNA": "DRSC25746", "firefly reporter light, replicate 1": 5.72e5, "firefly reporter light, replicate 2": 5.81e5, "Renilla control light, replicate 1": 7.38e5, "Renilla control light, replicate 2": 6.04e5}
{"Gene": "ago", "dsRNA": "DRSC08463", "firefly reporter light, replicate 1": 3.12e5, "firefly reporter light, replicate 2": 2.06e5, "Renilla control light, replicate 1": 7.88e5, "Renilla control light, replicate 2": 1.33e6}
{"Gene": "CG16863", "dsRNA": "DRSC01892", "firefly reporter light, replicate 1": 2.14e5, "firefly reporter light, replicate 2": 2.06e5, "Renilla control light, replicate 1": 1.78e6, "Renilla control light, replicate 2": 2.03e6}
